Measurements published in PubChem BioAssay AID1794844 (National Center for Advancing Translational Sciences (NCATS), 2023).
Hit rate of the full screen: of about 2,800 compounds, fewer than 10 were called active. About 7% were inconclusive and are not listed. Calls come from the whole dose curve; as a rule, active = well fitted inhibition curve with a large enough effect; inconclusive = small, poorly fitted or top-dose-only effect; inactive = no such curve, though single readings can be large or run the other way. The list shows a part of the results.

Chains of the proteins cited; added tags and fusions are not shown. Lines headed by an entry give the natural chain unless they say otherwise; changes in a name come on top.
UniProt C7C422: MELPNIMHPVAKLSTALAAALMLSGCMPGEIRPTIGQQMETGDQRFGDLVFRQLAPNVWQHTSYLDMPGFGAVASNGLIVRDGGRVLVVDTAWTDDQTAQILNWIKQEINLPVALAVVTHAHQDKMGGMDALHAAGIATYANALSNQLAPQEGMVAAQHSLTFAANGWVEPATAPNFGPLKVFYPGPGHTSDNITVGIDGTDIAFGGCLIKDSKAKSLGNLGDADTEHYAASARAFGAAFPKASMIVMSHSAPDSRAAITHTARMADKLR

Target: Metallo-beta-lactamase type 2 (Klebsiella pneumoniae) (UniProt C7C422)
Test: qHTS to identify inhibitors of the New Delhi Metallo-beta-lactamase (NDM): Nitrocefin screen against the machine-based learning selections. Note: % of control where 0% means no effect.
Settings: NDM-1 enzyme, nitrocefin hydrolysis, absorbance 485 nm; activity, negative = inhibition: at the top concentration
Method in brief: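 Hydrolysis by 2 nM NDM-1 was followed by absorbance after >30 min compound preincubation in HEPES pH 7.0 buffer with 1 uM Zn2SO4. For nitrocefin (16.7 uM, 15 min, 485 nm) and meropenem (50 uM, 30 min, 300 nm), each substrate ran on separate plates.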

activity, negative = inhibition, inactive:
COc1ccc(NC(=O)Cn2cccc2-c2nc(-c3ccccc3)no2)cc1 5.31%
O=C(Cc1ccc(F)cc1)N1CCc2nc(C3CC3)nc(-c3ccc(Cl)cc3)c2C1 -2.03%
Cn1nc(C2CCN(C(=O)c3cnccn3)CC2)c2c1CCOC2 -0.775%
COCCNc1ncc(-c2cccc(O)c2)c2c1OCC2 0.2% [at 76.7 µM]
Oc1ccccc1CN1CCNc2cnc(OCc3cccnc3)cc2C1 4.53% [at 57.5 µM]
COCCNC(=O)[C@@H]1CCC[C@@H](NC(=O)NC2(c3ccccc3)CCOCC2)CN(C)C(=O)C1 1.22%
CCN(CC)C(=O)[C@@H]1CCC[C@@H](NC(=O)c2ccc(C#N)cc2)CN(C)C(=O)C1 2.44% [at 57.5 µM]
COc1ccc(CNC(=O)CC[C@H]2CNC(=O)[C@@H]3[C@@H](CCN3Cc3ncc[nH]3)N2C)cc1 -2.57%
O=C(N[C@H]1CCN2C(=O)c3cc(-c4ccc5c(c4)OCO5)ccc3NC(=O)[C@H]12)C1CCCC1 -0.0308%
COc1ccc(CCCNC(=O)c2ccc(N3CCC(N(C)C)C3)nc2)cc1 (configuration not stated) -9.19%
Cn1c(CNCC2(COc3cccnc3)C[C@@H](O)[C@@H](O)C2)nc2ccccc21 (some centres not stated) -6.67%
COCCNC(=O)[C@H]1CCC[C@H]1NC(=O)c1ccc(OC)cc1 -13.1%
COc1cccc(CN[C@@H]2CCC[C@@H](C(=O)NCc3cc(C)on3)CC(=O)N(C)C2)c1 -0.652% [at 57.5 µM]
CC(=O)NC1(C)CN(Cc2ccc(-c3cccc(C(F)(F)F)c3)nc2)C1 -1.89% [at 57.5 µM]
COC(=O)[C@H](Cc1ccc(OC)cc1)NC(=O)[C@H]1CN(C(=O)c2ccc(N(C)C)cc2)CCN1C(=O)C1CCCCC1 -2.54%
C=CCC1(CO)CCCN(C(=O)c2cccc(N3CCNC3=O)c2)C1 (configuration not stated) 0.467%
Cc1cc(=O)n(CC(=O)Nc2cccc(F)c2)c(N2CCc3ccccc3C2)n1 -0.519%
O=S(=O)(c1cccs1)N1CCC(n2cnnc2-c2ccccc2)CC1 1.04%
Nc1cc(N2CC[C@@H](N3CCN(CCc4ccccc4)CC3)[C@H](O)C2)nc(N)n1 -1.07%
Cn1ccnc1CN1C(=O)CO[C@H](c2ccc(NC(=O)CC(C)(C)C)cc2)[C@H]1CO -1.71% [at 57.5 µM]
Cc1ccc(F)c(C(=O)N[C@H](Cc2ccccc2)C2CC(O)C2)c1Cl (some centres not stated) 2.51%
O=C(NCC1(O)CCCCC1)C1CCN(c2nc(-c3ccccc3)nc3c2CCC3)CC1 -5.8%
CCOc1cc(CN2CCC(C)(c3noc(C4CCOCC4)n3)CC2)ccc1O -0.443%
CC(C)CN1CC[C@H](c2nc3ncccc3[nH]2)C1 -0.79% [at 76.7 µM]
CCCCCC(=O)N[C@H]1C[C@@H](Cc2cc(CN3CCOCC3)on2)C1(C)C -21.3% [at 57.5 µM]
Cc1noc2c(N3CCOCC3)cc(-c3cccnc3)nc12 5.33% [at 57.5 µM]
c1ccc(CCCc2noc(-c3ccc(NCc4ccccn4)nc3)n2)cc1 19%
Cc1ccc(S(=O)(=O)N2C[C@@H]3OCC(=O)N(Cc4ccc(F)cc4)[C@@H]3C2)cc1 -6.21% [at 57.5 µM]
O=C(Nc1ccc(F)cc1)N1C[C@@H]2OCC(=O)N(Cc3ccc(OC(F)(F)F)cc3)[C@@H]2C1 -0.193%
COc1ccc(-c2ccc3nnc(CNC(=O)Cc4cccc(F)c4)n3n2)cc1 4.81%
COc1ccc(-c2ccnc(N[C@H]3CO[C@H]4[C@@H]3OC[C@H]4OCC(N)=O)n2)cc1 -2.07% [at 57.5 µM]
CN1c2cccnc2CN(Cc2cccc(Cl)c2)CC[C@H]1CO 5.15% [at 57.5 µM]
O=C(NCc1ccc(-c2cnc3c(Oc4ccccc4)nccn23)cc1)c1cccc(O)c1 11.3% [at 57.5 µM]
CCOc1cc(=O)n2c(c1C(=O)Nc1ccc(F)c(C)c1)CCCC2 0.524%
Fc1cccc(CN2CCC(Cc3nc(-c4ccncc4)n[nH]3)C2)c1 (configuration not stated) 9.16%
COCCN1C(=O)[C@@H]2C[C@@H](CN2C(=O)NCc2ccccc2)Oc2ccccc21 -24.9% [at 57.5 µM]
COc1cccc(CC(=O)NC2CCN(c3cnn(C)c(=O)c3)CC2)c1 -0.816%
O=C1CCCN1CCCN1C(=O)[C@H]2CN(Cc3ccc(F)c(Cl)c3)C[C@H]2C1=O 2.63%
Cc1ccoc1-c1nc2ccncc2[nH]1 -13.1% [at 76.7 µM]
COc1ccc(C(=O)N2CCc3ccc(C(=O)O)cc32)cc1 -2.63%
CN(CC1CCOC1)C(=O)Nc1cccc(Br)c1 (configuration not stated) -1.2%
C=CCN(C)C(=O)[C@@H](C)C1CC[C@@]2(C)Cc3sc(-c4cccnc4)nc3[C@@H](C)[C@@H]2[C@H]1O (some centres not stated) -0.244% [at 57.5 µM]
CC1=C[C@@H](CC#N)[C@H](C(C)C)C[C@H]1CC(=O)NC1CC1 -0.565% [at 76.7 µM]
CC(=O)NC1CCN(Cc2nc(-c3sccc3C)oc2C)CC1 -6.96%
Cc1ccc(C(=O)N2CCOC(c3ccc(Cl)c(Cl)c3)C2)c(=O)n1C (configuration not stated) -9.35%
O=C(O)c1cccc(-c2n[nH]c3c2CC(=O)N(CCOc2ccccc2)C3)c1 -7.98% [at 57.5 µM]
Cc1oc(C(O)c2ccccc2F)nc1C(=O)Nc1ccccc1C(N)=O (configuration not stated) 3.2% [at 57.5 µM]
O=C(Nc1cccnc1)N1CCOC[C@H](Oc2ccccc2)C1 2.16% [at 57.5 µM]
COCC1(c2nc(C3CCOCC3)nn2-c2ccccc2)CCC1 1.46%
c1cc(N2CCOCC2)ncc1-c1noc([C@@H]2CCCN2C2CCOCC2)n1 2.28% [at 57.5 µM]
O=C(c1ccc(N2CCC(NCC(c3ccccc3)c3ccccc3)CC2)cc1)N1CCCC(O)C1 (configuration not stated) -1.18%
CN(CC1CCOCC1)C(=O)Nc1ccc(Cl)cc1 -5.57%
Cc1ccc(NC(=O)N2CCCC2c2nncn2C2CCCC2)cc1F (configuration not stated) -3.6%
COc1cccc(-c2cc(C(=O)NCCOc3ccccc3)[nH]n2)c1 -0.0667%
CN(Cc1ccccc1)C(=O)[C@@H]1Cc2nc[nH]c2CN1C(=O)CC(C)(C)CC(=O)O 21.4% [at 57.5 µM]
Cc1ccccc1-c1cnc2[nH]cc(CC(=O)NCc3ccco3)c2c1 -0.559% [at 57.5 µM]
COCC1CN(C(C)=O)CC12CCN(Cc1cccc(C#N)c1)CC2 (configuration not stated) 6.56%
CC(C)(CC(=O)O)CC(=O)N1CCN2C(=O)N(CCc3cccs3)C(=O)[C@H]2C1 -5.59% [at 57.5 µM]
OCc1cccc(-c2ccc3ncc(Nc4ccccc4Cl)n3n2)c1 -5.71% [at 57.5 µM]
CCc1[nH]nc(-c2nc(C3CC3)nn2-c2ccc(S(N)(=O)=O)cc2)c1C 3.32%
COC(=O)[C@@H](Cc1cccnc1)NC(=O)[C@H]1CN(C(=O)Nc2ccccc2)CCN1S(=O)(=O)c1ccccc1 -4.1%
CCCCN1C(=O)[C@@H]2C[C@@H](O)CN2C2(CN(CC3CC3)C2)C1=O -1% [at 57.5 µM]
CSc1ccc(C(C(=O)O)N2CCN(Cc3csc(C)n3)CC2)cc1 (configuration not stated) 21.9%
CC(C)n1cnnc1-c1nn(C)c2c1CN(C(=O)Cc1c[nH]c3ccccc13)CC2 -0.623%
Cn1ccc2c(C(=O)NCCc3cnc[nH]3)nc(-c3cccc(CO)c3)cc21 23.7% [at 57.5 µM]
O=C(N[C@@H]1COCC[C@@H]1OCc1ccccc1)c1nc2ncccc2[nH]1 -0.591%
Cn1ccnc1CN1C[C@@H](F)[C@@H](OCc2nc3ccc(C(F)(F)F)cc3[nH]2)C1 2.16% [at 57.5 µM]
O=C(Nc1ccc([C@H]2OCC(=O)N(Cc3cccnc3)[C@@H]2CO)cc1)c1ccnc(Cl)c1 -3.55%
O=C(c1cc2cn(C3CC3)cc2s1)N1CCc2ccccc2C1 -7.42%
Cc1cc(C(=O)N[C@@H]2CCC[C@@H](C(=O)N3CCN(C)CC3)CC(=O)N(C)C2)no1 1.92% [at 57.5 µM]
C[C@]1(O)CCN(C(=O)CC(c2ccccc2)c2ccccc2)C[C@@H]1O -1.31%
CN1Cc2ccc(NCc3ccccc3)nc2C(C)(C(=O)NCCc2cnc[nH]2)C1 (configuration not stated) -2.85% [at 57.5 µM]
CNC(=O)N1CCOc2ccc(CCC(=O)NCC3CC3)cc2C1 -2.19%
Cc1ccc(S(=O)(=O)N2C[C@@H]3OCC(=O)N(Cc4ccc(OC(F)(F)F)cc4)[C@@H]3C2)cc1 1.31%
CCS(=O)(=O)N1CCC(CC(=O)NCc2ccccc2)C1 (configuration not stated) -1.44%
Cn1nc(C(=O)NCc2nnc3ccc(-c4ccccc4)nn23)c2ccccc21 -3%
Cc1ccc(S(=O)(=O)N2CCn3c(n[nH]c3=O)C2)c(C)c1 -10.8%
CCC[C@@H]1CN(Cc2[nH]cc(C)c(=O)c2C)C[C@H]1C(=O)O -6.18%
Cc1cc(=O)n(CC(=O)Nc2ccccc2C)c(-c2ccc(F)cc2)n1 34%
Cc1nn(Cc2ccccc2)c(C)c1[C@@H]1C=C[C@@H](NC(=O)CCCC(=O)O)C1 -6.73% [at 57.5 µM]
Cc1cc(=O)n(CC(=O)Nc2cccc(C(F)(F)F)c2)c(N2CCN(c3ccccc3)CC2)n1 -3.33%
CC(=O)Nc1cccc(-c2csc(CN3CCCC(C)(NC(C)=O)C3)c2)c1 (configuration not stated) -2.8% [at 57.5 µM]
COCCN1C(=O)[C@H]2CN(Cc3cccc(OC)c3)C[C@H]2C1=O -4.3%
CC(=O)N1CCc2nc(-c3ccc(Cl)cc3)nc(-c3ccccc3)c2C1 -1.17%
CC1=NOC2(CCN(C(=O)c3ccc(C)cc3)CC2)C1 1.58% [at 57.5 µM]
O=C1Nc2ccc(-c3ccc4c(c3)OCO4)cc2C(=O)N2CCN(C(=O)c3cccs3)C[C@H]12 -0.771%
Cn1nc(C2CCN(C(=O)c3cccc(Cl)c3)CC2)[nH]c1=O -0.298% [at 57.5 µM]
CN(C)C(=O)NC1CCN(c2nc3ncccc3o2)CC1 -2.93% [at 57.5 µM]
CC(C)c1ccc(Nc2n[nH]c(C(O)c3ccccc3)n2)cc1 (configuration not stated) 8.05% [at 57.5 µM]
CCN(CC)Cc1cnc2c(C(=O)N3CCC(N4CCCC4)CC3)cnn2c1 -2.66%
Cc1cc(OC(C)C(=O)N2CCc3c(nc[nH]c3=O)C2)cc(C)c1Cl (configuration not stated) 1.34%
C[C@@H](NC(=O)[C@@H]1C[C@@H](NS(=O)(=O)c2cn(C)cn2)CCN1C(=O)c1ccco1)C(N)=O -0.956%
CCCC1C=CCN1C(=O)c1coc(CN2CCN(c3ccccc3F)CC2)n1 (configuration not stated) -8.11%
Cc1c(C(C)NC(=O)c2ccc(C#N)nc2)cnn1-c1ccc(F)cc1F (configuration not stated) 2.4%
O=C(Nc1cccc(-c2ccc(F)cc2)c1)C1CCCN(C(=O)c2cccnc2)C1 (configuration not stated) 2.57%
Cc1noc(C)c1S(=O)(=O)N1C[C@@H](C(N)=O)[C@H](C2CCN(C)CC2)C1 0.0336%
Cc1cc(C)nc(N2CCN(C(=O)C3CC(=O)N(CC(C)C)C3)CC2)n1 (configuration not stated) -0.903%

Among those listed so far, 3 have a furan ring, fused or not:
activity, negative = inhibition, inactive:
Cc1ccoc1-c1nc2ccncc2[nH]1 -13.1% [at 76.7 µM]
Cc1ccccc1-c1cnc2[nH]cc(CC(=O)NCc3ccco3)c2c1 -0.559% [at 57.5 µM]
C[C@@H](NC(=O)[C@@H]1C[C@@H](NS(=O)(=O)c2cn(C)cn2)CCN1C(=O)c1ccco1)C(N)=O -0.956%

Among those listed so far, 2 have two or more sulfur atoms.
activity, negative = inhibition, inactive:
O=S(=O)(c1cccs1)N1CCC(n2cnnc2-c2ccccc2)CC1 1.04%
CSc1ccc(C(C(=O)O)N2CCN(Cc3csc(C)n3)CC2)cc1 (configuration not stated) 21.9%
